Source: PubChem BioAssay AID504764 (Drosophila RNAi Screening Center, 2011)

- Test: 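Knock-downs that raise or lower a Notch target reporter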 (primary screen)
- Cells: Drosophila Kc167 cells
- Knock-down reagent: long dsRNA against Drosophila genes
- Duration: about 5 days (4 days dsRNA, then 24 h after transfection)
- Conditions: transfection of constitutively active membrane-tethered Notch lacking the extracellular domain, read 24 h later
- Measurement: 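Light from a Notch-responsive E(spl)m3 luciferase reporter under active Notch, with control-promoter and no-Notch reporter wells to normalise; raw counts from paired wells a and b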
- Scale: induced reporter light, run 1, well a and induced reporter light, run 1, well b: higher = more light from the Notch target reporter with active Notch; control promoter light, run 1, well a and control promoter light, run 1, well b: higher = more light from the viral control promoter (cell number, transfection, viability); uninduced reporter light, run 1, well a: higher = more light from the Notch target reporter without active Notch
- Rule for the call: 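Wells with low control signal or poorly matching duplicates excluded; duplicates averaged; per source plate, z beyond ±2 for induced/control log2 ratio or beyond ±1.8 for induced/uninduced marks a hit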
- Calls: active = modifier hit (raised or lowered Notch signal); inactive = not a hit
The deposit covers about 22,000 reagents; shown is an unselected part of those with a known target gene and a result. Of all reagents, 403 (1.9%) got an active call. 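Unnormalised raw counts per well; ratio z-scores behind the hit calls and whether each hit raises or lowers signal are not deposited.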 Not stated in the record: the amount of reagent.

The opening 3 entries, to show the layout:
Gene	dsRNA	induced reporter light, run 1, well a	induced reporter light, run 1, well b	control promoter light, run 1, well a	control promoter light, run 1, well b	uninduced reporter light, run 1, well a	outcome
CG13280	DRSC02253	1.20e5	1.33e5	1.41e5	1.50e5	9730	inactive
AdoR	DRSC16556	54375	66045	75620	90805	5470	inactive
CG31204	DRSC15106	1.74e5	1.42e5	2.45e5	2.74e5	13042	inactive

The list itself, repeating the preview:
Gene	dsRNA	induced reporter light, run 1, well a	induced reporter light, run 1, well b	control promoter light, run 1, well a	control promoter light, run 1, well b	uninduced reporter light, run 1, well a	outcome
CG13280	DRSC02253	1.20e5	1.33e5	1.41e5	1.50e5	9730	inactive
AdoR	DRSC16556	54375	66045	75620	90805	5470	inactive
CG31204	DRSC15106	1.74e5	1.42e5	2.45e5	2.74e5	13042	inactive
CG3483	DRSC04371	1.54e5	1.58e5	1.24e5	1.45e5	12420	inactive
CG15254	DRSC01870	1.18e5	1.39e5	1.51e5	1.35e5	12835	inactive
CG8128	DRSC20084	2.17e5	1.87e5	3.01e5	2.69e5	14685	inactive
Usf	DRSC18129	1.18e5	1.11e5	1.62e5	2.13e5	8280	inactive
CG3226	DRSC18296	2.77e5	2.31e5	3.42e5	3.37e5	17532	inactive
CG13972	DRSC14715	1.80e5	1.21e5	2.35e5	2.49e5	15340	inactive
CG1572	DRSC19686	1.61e5	1.56e5	2.21e5	2.24e5	11025	inactive
bsh	DRSC03498	1.80e5	1.45e5	2.28e5	2.16e5	11235	inactive
COX4L	DRSC04841	1.65e5	1.61e5	1.47e5	1.74e5	11875	inactive
CG15699 (retired record)	DRSC06571	22855	44550	45125	46095	4288	inactive
CG30010	DRSC05193	62525	75910	86475	83590	3590	inactive
Etfb	DRSC16324	1.64e5	2.02e5	2.41e5	2.33e5	12315	inactive
CG17219	DRSC00486	1.96e5	1.85e5	2.79e5	2.46e5	12390	inactive
CG7328	DRSC10812	1.04e5	1.08e5	1.03e5	1.01e5	8975	inactive
hmw	DRSC16277	2.06e5	2.20e5	2.65e5	2.57e5	16365	inactive
CG3347	DRSC00597	2.07e5	2.66e5	3.14e5	2.90e5	17470	inactive
Hex-C	DRSC07079	80135	73635	1.06e5	98080	6535	inactive
Spn43Aa	DRSC06117	1.11e5	1.51e5	1.25e5	1.28e5	10400	inactive
CG8578	DRSC20114	1.92e5	1.82e5	2.21e5	2.23e5	14830	inactive
Snap24	DRSC16864	49455	51480	47840	51015	2960	inactive
msd1	DRSC08383	1.08e5	1.25e5	2.03e5	1.85e5	5645	inactive
mthl13	DRSC05238	2.85e5	2.43e5	3.50e5	3.47e5	22575	inactive
CG3437	DRSC10366	1.30e5	94355	1.60e5	1.92e5	6845	inactive
SP1173	DRSC11277	1.04e5	1.31e5	83155	30995	10905	inactive
tpr	DRSC04468	1.05e5	1.26e5	83510	76720	8005	inactive
CG14424	DRSC18472	1.20e5	1.21e5	1.39e5	1.81e5	7288	inactive
CG2694	DRSC18470	1.73e5	2.47e5	2.05e5	3.06e5	14485	inactive
Blimp-1	DRSC10496	2.29e5	2.62e5	2.83e5	2.08e5	12435	inactive
Ugt302K1	DRSC16086	10025	9260	14075	16455	670	inactive
Nepl19	DRSC14875	1.84e5	1.56e5	2.70e5	2.80e5	13280	inactive
ND-24	DRSC19960	98360	98265	96880	46820	8095	inactive
